Patent US20080139649A1, “Fatty Acid-Benzenediol Derivatives and Methods of Making and Using Thereof” (priority 2005, published 2008)
The name of at least one read-out is uncertain.

Assay: Solubility of CoQ10 in fish oil and fish oil concentrates under different conditions and time of storage
Type: physicochemical
Conditions: overall statement on 0355EE, 4020EE, 1812TG
Source text: CoQ10 was solubilized in 0355 EE (fish oil concentrate in ethylester form containing 3% EPA and 55% DHA), 4020EE (fish oil concentrate in ethylester form containing 40% EPA and 20% DHA) and 1812TG (purified fish oil containing 18% EPA and 12% of DHA) and the final solubility was examined under different conditions and time of storage. All of these starting oils were manufactured by Ocean Nutrition Canada, Mulgrave, NS).

With `COC1=C(OC)C(=O)C(C/C=C(\C)CC/C=C(\C)CC/C=C(\C)CC/C=C(\C)CC/C=C(\C)CC/C=C(\C)CC/C=C(\C)CC/C=C(\C)CC/C=C(\C)CCC=C(C)C)=C(C)C1=O` [CoQ10ox, 2,3-dimethyoxy-5-methyl-6-decaprenyl-1,4-benzoquinone] as the molecule, how does the “Solubilization of CoQ10ox in the tested fish oil and concentrates” value read?
Its value is “very limited”.
